The results in this text go back to PMC2430599, “Solution Structure and Sugar-Binding Mechanism of Mouse Latrophilin-1 RBL: a 7TM Receptor-Attached Lectin-Like Domain” (Structure(London, England:1993), 2008).

Results are given in words; binding and its absence hold for the method and conditions named.

Experiment [1] deals with RBL domain of mouse Latrophilin-1 (residues 30–134) (mouse) (UniProt Q80TR1). As to the kind of experiment: AUC; sedimentation equilibrium, 4°C, 20 μM protein in PBS, 25,000 rpm for 48 hr, absorbance at 280 nm, fit to an ideal monodisperse model; both purified.
Experiment [2] has the same target. As to the kind of experiment: condition: high protein concentrations (NMR samples 1–2 mM unless otherwise noted); NMR protein dynamics; 30°C, NMR samples 1–2 mM protein in 20 mM sodium phosphate pH 7.0, 2 mM EDTA, unless otherwise noted; both purified.

B1: RBL domain of mouse Latrophilin-1 (residues 30–134) (domain or fragment, UniProt Q80TR1 30-134)
chain: LPFGLMRRELACEGYPIELRCPGSDVIMVENANYGRTDDKICDADPFQMENVQCYLPDAFKIMSQRCNNRTQCVVVAGSDAFPDPCPGTYKYLEVQYDCVPYIFV
For B1, the binding entry in experiment [1] was “no binding (tested: 20 μM)”; in experiment [2] it was “no binding”.
